B1: LO115: anti-PD-1 antibody (antibody)
heavy: EVQLVESGGGLVQPGGSLRLSCAASGFTFSDYGMHWVRQAPGKGLEWVAYISSGSYTIYSADSVKGRFTISRDNAKNSLYLQMNSLRAEDTAVYYCARRAPNSFYEYYFDYWGQGTTVTVSSASTKGPSVFPLAPSSKSTSGGTAALGCLVKDYFPEPVTVSWNSGALTSGVHTFPAVLQSSGLYSLSSVVTVPSSSLGTQTYICNVNHKPSNTKVDKRVEPKSCDKTHTCPPCPAPEFEGGPSVFLFPPKPKDTLMISRTPEVTCVVVDVSHEDPEVKFNWYVDGVEVHNAKTKPREEQYNSTYRVVSVLTVLHQDWLNGKEYKCKVSNKALPASIEKTISKAKGQPREPQVCTLPPSREEMTKNQVSLSCAVKGFYPSDIAVEWESNGQPENNYKTTPPVLDSDGSFFLVSKLTVDKSRWQQGNVFSCSVMHEALHNHYTQKSLSLSPGK
light: QIVLTQSPATLSLSPGERATLSCSASSKHTNLYWSRHMYWYQQKPGQAPRLLIYLTSNRATGIPARFSGSGSGTDFTLTISSLEPEDFAVYYCQQWSSNPFTFGQGTKLEIKRTVAAPSVFIFPPSDEQLKSGTASVVCLLNNFYPREAKVQWKVDNALQSGNSQESVTEQDSKDSTYSLSSTLTLSKADYEKHK
B2: MEDI0680: anti-PD-1 antibody (antibody, V domains shown)
VH: EVQLVESGGGLVQPGGSLRLSCAASGFTFSDYGMHWVRQAPGKGLEWVAYISSGSYTIYSADSVKGRFTISRDNAKNTLYLQMSSLRAEDTAVYYCARRGYGSFYEYYFDYWGQGTTVTVSS
VL: QIVLTQSPATLSLSPGERATLSCSASSSVSYMYWYQQKPGQAPRLLIYLTSNRATGIPARFSGSGSGTDYSSTLTISSLEPEDFAVYYCQQWSSNPFTFGQGTKLEIK

Test system: PD-1 expressing T cells
Assay: Magnetic bead enrichment (selection) of PD-1 expressing T cells with biotinylated anti-PD-1 antibody
Type: cell-based, human
Experimental: Donor blood was obtained in the form of human peripheral blood through standard leukapheresis or blood draw protocols. The red blood cells were removed from the donor blood by centrifugation protocols known in the art. Briefly, the peripheral blood was centrifuged, the supernatant discarded, the pellet was resuspended in ammonium chloride potassium (ACK) buffer, the ACK pellet suspension was incubated at room temperature, and the cells were washed twice in wash buffer to produce a cell pellet.
Enrichment of the PD-1 expressing cells was then performed. The washed cell pellet was resuspended in wash buffer and cell count determined. Wash buffer was added to bring the cell density to 100×10^6 cells per mL. 1 μg/mL MEDI3097 antibody was added to the cells to produce an antibody-cell mixture comprising cells and MEDI3097 antibody. The antibody mixture was incubated at 4° C. for 15 minutes and then centrifuged and washed twice with wash buffer. Wash buffer was added to bring cell density to 125×10^6 cells per mL. Anti-biotin beads were then added to the cells at a concentration of 2 mL beads per 1 billion cells to produce a bead mixture. […]
Enrichment of PD-1 expressing T cells was performed after red blood cells were removed from leukapheresis products. The washed cell pellet was resuspended in wash buffer and cell count determined. […]

Row | Molecule | PD-1 expression of selected T cells versus biotinylated antibody concentration (concentration adjusted (0.5 μg/mL to 0.05 μg/mL)) | PD-1 expression level of isolated cells versus ratio of biotinylated to unmodified antibody (total anti-PD-1 antibody concentration constant)
1 | B1 | expression of PD-1 high T cells increases as the concentration of the biotinylated antibody decreases | 
2 | B2 |  | the PD-1 expression level of isolated cells increased as the ratio of unmodified anti-PD-1 antibody increased
